Assay results as given in the supplement of paper PMC4604168 (melanoma cell lines).
Some of the results follow. Single values are uncertain, as repeats are few or missing.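 The apoptosis fraction was the count of cleaved-PARP antibody-stained nuclei relative to all DNA-stained nuclei, imaged in 1,536-well plates. Screening doses were set so most cells survived, and baseline and induced cleaved-PARP levels vary greatly across cell lines.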

Columns and labels:
Test in all cases: cleaved PARP positive nuclei fraction relative to DMSO control; melanoma cells; higher = more apoptosis
Conditions in all cases: library dose: low library concentration; 72 h
MZ2-MEL = test system: MZ2-MEL
MeWo = test system: MeWo
RPMI7951 = test system: RPMI7951
RVH-421 = test system: RVH-421
SkMel28 = test system: SkMel28
SkMel2 = test system: SkMel2
SkMel30 = test system: SkMel30
SkMel5 = test system: SkMel5
UACC257 = test system: UACC257
UACC62 = test system: UACC62

In the case of `CC1(C)CCC(c2ccc(Cl)cc2)=C(CN2CCN(c3ccc(C(=O)NS(=O)(=O)c4ccc(N[C@H](CCN5CCOCC5)CSc5ccccc5)c(S(=O)(=O)C(F)(F)F)c4)cc3)CC2)C1` + COc1cc(Nc2ncc(F)c(Nc3ccc4c(n3)NC(=O)C(C)(C)O4)n2)cc(OC)c1OC [Tamatinib] (first compound 0.4 µM, partner dose 0.4 µM), the “cleaved PARP positive nuclei fraction” value (MZ2-MEL) is reported as 263%, the “cleaved PARP positive nuclei fraction” value (MeWo) is reported as 256% and the “cleaved PARP positive nuclei fraction” value (RPMI7951) is reported as 179%. For the same molecule, the “cleaved PARP positive nuclei fraction” value (RVH-421) was 311%, the “cleaved PARP positive nuclei fraction” value (SkMel28) was 78.4% and the “cleaved PARP positive nuclei fraction” value (SkMel2) was 96.5%. For the same molecule, the “cleaved PARP positive nuclei fraction” value (SkMel30) was 216%, the “cleaved PARP positive nuclei fraction” value (SkMel5) was 354% and the “cleaved PARP positive nuclei fraction” value (UACC257) was 500%. For the same molecule, the “cleaved PARP positive nuclei fraction” value (UACC62) was 413%.
`CC(=O)O[C@@]12CO[C@@H]1C[C@H](O)[C@@]1(C)C(=O)[C@H](O)C3=C(C)[C@@H](OC(=O)[C@H](O)[C@@H](NC(=O)OC(C)(C)C)c4ccccc4)C[C@@](O)([C@@H](OC(=O)c4ccccc4)[C@H]21)C3(C)C` [Docetaxel] + CCN(CC)CCCCNc1ncc2cc(-c3cc(OC)cc(OC)c3)c(NC(=O)NC(C)(C)C)nc2n1 [PD173074] (first compound 0.0001 µM, partner dose 0.1 µM) was tested, and the “cleaved PARP positive nuclei fraction” value (MZ2-MEL) was 692%, the “cleaved PARP positive nuclei fraction” value (MeWo) was 473% and the “cleaved PARP positive nuclei fraction” value (RPMI7951) was 206%. The “cleaved PARP positive nuclei fraction” value (RVH-421) was 30.8%, the “cleaved PARP positive nuclei fraction” value (SkMel28) was 899% and the “cleaved PARP positive nuclei fraction” value (SkMel2) was 466%. The “cleaved PARP positive nuclei fraction” value (SkMel30) was 150%, the “cleaved PARP positive nuclei fraction” value (SkMel5) was 670% and the “cleaved PARP positive nuclei fraction” value (UACC257) was 192%. For the same molecule, the “cleaved PARP positive nuclei fraction” value (UACC62) was 117%.
With `C[C@@H](N)c1ccc(C(=O)Nc2ccnc3[nH]ccc23)cc1` + NC(=O)Nc1cc(-c2cccc(F)c2)sc1C(=O)N[C@H]1CCCNC1 [AZD7762] (first compound 0.4 µM, partner dose 0.02 µM) the “cleaved PARP positive nuclei fraction” value (MZ2-MEL) was 160%, the “cleaved PARP positive nuclei fraction” value (MeWo) was 119% and the “cleaved PARP positive nuclei fraction” value (RPMI7951) was 126%. For the same molecule, the “cleaved PARP positive nuclei fraction” value (RVH-421) was 41.2%, the “cleaved PARP positive nuclei fraction” value (SkMel28) was 90.9% and the “cleaved PARP positive nuclei fraction” value (SkMel2) was 81%. The “cleaved PARP positive nuclei fraction” value (SkMel30) was 42.3%, the “cleaved PARP positive nuclei fraction” value (SkMel5) was 65.8% and the “cleaved PARP positive nuclei fraction” value (UACC257) was 84.1%. For the same molecule, the “cleaved PARP positive nuclei fraction” value (UACC62) was 216%.
`C[C@]1(O)C[C@@H](c2nc(-c3ccc4ccc(-c5ccccc5)nc4c3)c3c(N)nccn32)C1` + NC(=O)Nc1cc(-c2cccc(F)c2)sc1C(=O)N[C@H]1CCCNC1 [AZD7762] (first compound 0.4 µM, partner dose 0.02 µM) was tested, and the “cleaved PARP positive nuclei fraction” value (MZ2-MEL) was 175%, the “cleaved PARP positive nuclei fraction” value (MeWo) was 49.9% and the “cleaved PARP positive nuclei fraction” value (RPMI7951) was 65.6%. For the same molecule, the “cleaved PARP positive nuclei fraction” value (RVH-421) was 45.5%, the “cleaved PARP positive nuclei fraction” value (SkMel28) was 33.1% and the “cleaved PARP positive nuclei fraction” value (SkMel2) was 129%. For the same molecule, the “cleaved PARP positive nuclei fraction” value (SkMel30) was 155%, the “cleaved PARP positive nuclei fraction” value (SkMel5) was 110% and the “cleaved PARP positive nuclei fraction” value (UACC257) was 54.1%. The “cleaved PARP positive nuclei fraction” value (UACC62) was 44.6%.
In the case of `C[C@@H](N)c1ccc(C(=O)Nc2ccnc3[nH]ccc23)cc1` + OCCn1cc(-c2cnc3nnn(Cc4ccc5ncccc5c4)c3n2)cn1 [PF04217903] (first compound 0.4 µM, partner dose 1 µM), the “cleaved PARP positive nuclei fraction” value (MZ2-MEL) is reported as 120%, the “cleaved PARP positive nuclei fraction” value (MeWo) is reported as 273% and the “cleaved PARP positive nuclei fraction” value (RPMI7951) is reported as 144%. The “cleaved PARP positive nuclei fraction” value (RVH-421) was 298%, the “cleaved PARP positive nuclei fraction” value (SkMel28) was 109% and the “cleaved PARP positive nuclei fraction” value (SkMel2) was 51.5%. For the same molecule, the “cleaved PARP positive nuclei fraction” value (SkMel30) was 125%, the “cleaved PARP positive nuclei fraction” value (SkMel5) was 112% and the “cleaved PARP positive nuclei fraction” value (UACC257) was 32.1%. The “cleaved PARP positive nuclei fraction” value (UACC62) was 205%.
In the case of `Cn1cnc2c(F)c(Nc3ccc(Br)cc3Cl)c(C(=O)NOCCO)cc21` [selumetinib] + COc1ccc2c(c1)CCC1C2CCC2(C)C(NCCCCCCN3C(=O)C=CC3=O)CCC12 [U73122] (first compound 0.015 µM, partner dose 0.4 µM), the “cleaved PARP positive nuclei fraction” value (MZ2-MEL) is reported as 195%, the “cleaved PARP positive nuclei fraction” value (MeWo) is reported as 111% and the “cleaved PARP positive nuclei fraction” value (RPMI7951) is reported as 113%. The “cleaved PARP positive nuclei fraction” value (RVH-421) was 210%, the “cleaved PARP positive nuclei fraction” value (SkMel28) was 83% and the “cleaved PARP positive nuclei fraction” value (SkMel2) was 61.5%. For the same molecule, the “cleaved PARP positive nuclei fraction” value (SkMel30) was 97.9%, the “cleaved PARP positive nuclei fraction” value (SkMel5) was 128% and the “cleaved PARP positive nuclei fraction” value (UACC257) was 63.1%. For the same molecule, the “cleaved PARP positive nuclei fraction” value (UACC62) was 207%.
`COc1ccc(C2=N[C@@H](c3ccc(Cl)cc3)[C@@H](c3ccc(Cl)cc3)N2C(=O)N2CCNC(=O)C2)c(OC(C)C)c1` [Nutlin-3] + CC(C)(C)c1cnc(CSc2cnc(NC(=O)C3CCNCC3)s2)o1 [SNS-032] (first compound 0.1 µM, partner dose 0.01 µM) was tested, and the “cleaved PARP positive nuclei fraction” value (MZ2-MEL) was 315%, the “cleaved PARP positive nuclei fraction” value (MeWo) was 955% and the “cleaved PARP positive nuclei fraction” value (RPMI7951) was 50.1%. For the same molecule, the “cleaved PARP positive nuclei fraction” value (RVH-421) was 171%, the “cleaved PARP positive nuclei fraction” value (SkMel28) was 96.9% and the “cleaved PARP positive nuclei fraction” value (SkMel2) was 159%. For the same molecule, the “cleaved PARP positive nuclei fraction” value (SkMel30) was 62.9%, the “cleaved PARP positive nuclei fraction” value (SkMel5) was 138% and the “cleaved PARP positive nuclei fraction” value (UACC257) was 54.1%. For the same molecule, the “cleaved PARP positive nuclei fraction” value (UACC62) was 125%.
With `NC(=O)c1ccc(N(C(N)=O)c2c(F)cccc2F)nc1-c1ccc(F)cc1F` + Cc1ccc(NC(=O)c2cccc(N(C)C)c2)cc1NC(=O)c1ccc(O)cc1 [ZM336372] (first compound 0.4 µM, partner dose 2 µM) the “cleaved PARP positive nuclei fraction” value (MZ2-MEL) was 242%, the “cleaved PARP positive nuclei fraction” value (MeWo) was 71.3% and the “cleaved PARP positive nuclei fraction” value (RPMI7951) was 113%. The “cleaved PARP positive nuclei fraction” value (RVH-421) was 29.2%, the “cleaved PARP positive nuclei fraction” value (SkMel28) was 205% and the “cleaved PARP positive nuclei fraction” value (SkMel2) was 44%. For the same molecule, the “cleaved PARP positive nuclei fraction” value (SkMel30) was 75.5%, the “cleaved PARP positive nuclei fraction” value (SkMel5) was 133% and the “cleaved PARP positive nuclei fraction” value (UACC257) was 112%. The “cleaved PARP positive nuclei fraction” value (UACC62) was 53.1%.
In the case of `CC(=O)O[C@@]12CO[C@@H]1C[C@H](O)[C@@]1(C)C(=O)[C@H](O)C3=C(C)[C@@H](OC(=O)[C@H](O)[C@@H](NC(=O)OC(C)(C)C)c4ccccc4)C[C@@](O)([C@@H](OC(=O)c4ccccc4)[C@H]21)C3(C)C` [Docetaxel] + O=S(=O)(c1ccccc1)N(CC(F)(F)F)c1ccc(C(O)(C(F)(F)F)C(F)(F)F)cc1 [T0901317] (first compound 0.0001 µM, partner dose 1.4 µM), the “cleaved PARP positive nuclei fraction” value (MZ2-MEL) is reported as 606%, the “cleaved PARP positive nuclei fraction” value (MeWo) is reported as 767% and the “cleaved PARP positive nuclei fraction” value (RPMI7951) is reported as 141%. The “cleaved PARP positive nuclei fraction” value (RVH-421) was 104%, the “cleaved PARP positive nuclei fraction” value (SkMel28) was 669% and the “cleaved PARP positive nuclei fraction” value (SkMel2) was 475%. For the same molecule, the “cleaved PARP positive nuclei fraction” value (SkMel30) was 201%, the “cleaved PARP positive nuclei fraction” value (SkMel5) was 101% and the “cleaved PARP positive nuclei fraction” value (UACC257) was 672%. The “cleaved PARP positive nuclei fraction” value (UACC62) was 416%.
In the case of `COc1ccc(C2=N[C@@H](c3ccc(Cl)cc3)[C@@H](c3ccc(Cl)cc3)N2C(=O)N2CCNC(=O)C2)c(OC(C)C)c1` [Nutlin-3] + NCC(=O)Nc1ccc(-n2nc(C(F)(F)F)cc2-c2ccc3c(ccc4ccccc43)c2)cc1 [OSU03012] (first compound 0.1 µM, partner dose 1 µM), the “cleaved PARP positive nuclei fraction” value (MZ2-MEL) is reported as 106%, the “cleaved PARP positive nuclei fraction” value (MeWo) is reported as 173% and the “cleaved PARP positive nuclei fraction” value (RPMI7951) is reported as 152%. The “cleaved PARP positive nuclei fraction” value (RVH-421) was 56.4%, the “cleaved PARP positive nuclei fraction” value (SkMel28) was 167% and the “cleaved PARP positive nuclei fraction” value (SkMel2) was 195%. For the same molecule, the “cleaved PARP positive nuclei fraction” value (SkMel30) was 292%, the “cleaved PARP positive nuclei fraction” value (SkMel5) was 193% and the “cleaved PARP positive nuclei fraction” value (UACC257) was 88.2%. For the same molecule, the “cleaved PARP positive nuclei fraction” value (UACC62) was 92.5%.
With `C[C@@H](N)c1ccc(C(=O)Nc2ccnc3[nH]ccc23)cc1` + C[C@@H]1CCN(C(=O)CC#N)C[C@@H]1N(C)c1ncnc2[nH]ccc12 [CP690550] (first compound 0.4 µM, partner dose 1 µM) the “cleaved PARP positive nuclei fraction” value (MZ2-MEL) was 38%, the “cleaved PARP positive nuclei fraction” value (MeWo) was 35.1% and the “cleaved PARP positive nuclei fraction” value (RPMI7951) was 175%. The “cleaved PARP positive nuclei fraction” value (RVH-421) was 223%, the “cleaved PARP positive nuclei fraction” value (SkMel28) was 138% and the “cleaved PARP positive nuclei fraction” value (SkMel2) was 45.2%. The “cleaved PARP positive nuclei fraction” value (SkMel30) was 54.3%, the “cleaved PARP positive nuclei fraction” value (SkMel5) was 413% and the “cleaved PARP positive nuclei fraction” value (UACC257) was 103%. For the same molecule, the “cleaved PARP positive nuclei fraction” value (UACC62) was 25.8%.
